Measured values as given in the supplement of paper PMC9135407.
“And” between values parts separate entries of the source, which are not always exact repeats. Equal values may be shown once. Where a name gives a salt, the structure may show the parent alone. ± gives the standard deviation of the averaged measurements. The list shows a part of the results. Baselines shift from plate to plate; read single values as rough.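 Culture-activated primary human stellate myofibroblasts, where regained lipid droplets signal inactivation. Value: share of Hoechst-counted cells above a per-plate Bodipy cutoff, in duplicate wells, with DMSO negative and nortriptyline positive controls on each plate. Hits: a control-normalized score above the plate's top-tenth-percentile nortriptyline wells, or one of a plate's three best wells. Final well concentrations are not given.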

Tested on: primary human hepatic stellate cells (donor 1)
Test: percent Bodipy-positive cells; higher = more lipid droplet accumulation
Settings: 48 h
[1] = library stock concentration: 10 mM
[2] = library stock concentration: 1 mM
[3] = library stock concentration: 3.33 mM
[4] = library stock concentration: 80 uM
[5] = library stock concentration: 400 uM
[6] = library stock concentration: 2 mM

NS(=O)(=O)c1ccc(C(=O)O)cc1
percent Bodipy-positive cells [1]: 34.2 ± 5.4%

n(c1N)c(N(CC)C(C)C)c(nc1C(=O)\N=C(\N)/N)Cl [5-(N-Ethyl-N-isopropyl)amiloride]
percent Bodipy-positive cells [1]: 98.6 ± 1.6%

CCCCCCCCCCCCC/C=C/[C@@H](O)[C@H](CO)N(C)C [N,N-Dimethylsphingosine]
percent Bodipy-positive cells [2]: 23.8 ± 2.6%

COc1cc2ncnc(Nc3ccc(Cl)cc3F)c2cc1OC
percent Bodipy-positive cells [3]: 12.2 ± 2.4% | percent Bodipy-positive cells [1]: 20.6% and 9.25%

Nc1nc2ccc(Cl)cc2n2c(-c3ccccc3)nnc12
percent Bodipy-positive cells [1]: 42.7 ± 1.9%

N[C@@H]1CCCN(c2c(/C=C3\SC(=O)NC3=O)cccc2-c2ccccc2)C1
percent Bodipy-positive cells [4]: 8.87 ± 8.3% | percent Bodipy-positive cells [5]: 6.1 ± 0.8% | percent Bodipy-positive cells [6]: 7.97 ± 0.48% | percent Bodipy-positive cells [3]: 41.8 ± 1.8% | percent Bodipy-positive cells [1]: 53.7% and 35.1%

CCN(CC)CCn1c(=O)c(Cc2ccc(OC)cc2)nc2ccccc21 [Caroverine hydrochloride]
percent Bodipy-positive cells [1]: 45.2 ± 7.2%

Cc1cccc(CCN2CCC(C(=O)c3ccc(NS(C)(=O)=O)cc3)CC2)n1 [E-4031 dihydrochloride]
percent Bodipy-positive cells [1]: 9.97 ± 2.2%

Cc1cccc(CCN2CCC(C(=O)c3ccc(NS(C)(=O)=O)cc3)CC2)n1
percent Bodipy-positive cells (library stock concentration: 9.9 mM): 7.199 ± 0.053%

CS(=O)(=O)c1ccc([C@H](O)[C@@H](COC(=O)CN)NC(=O)C(Cl)Cl)cc1 [Thiamphenicol glycinate]
percent Bodipy-positive cells (library stock concentration: 4.8 mM): 8.54 ± 0.5%

CO[C@H]1C[C@@H]2CC[C@@H](C)[C@@](O)(O2)C(=O)C(=O)N2CCCC[C@H]2C(=O)O[C@H]([C@H](C)C[C@@H]2CC[C@@H](O)[C@H](OC)C2)CC(=O)[C@H](C)/C=C(\C)[C@@H](O)[C@@H](OC)C(=O)[C@H](C)C[C@H](C)/C=C/C=C/C=C/1C [Rapamycin (Sirolimus)]
percent Bodipy-positive cells [3]: 5.28 ± 0.52% | percent Bodipy-positive cells [1]: 13.93 ± 0.12%

CO[C@H]1C[C@@H]2CC[C@@H](C)[C@@](O)(O2)C(=O)C(=O)N2CCCC[C@H]2C(=O)O[C@H]([C@H](C)C[C@@H]2CC[C@@H](O)[C@H](OC)C2)CC(=O)[C@H](C)/C=C(\C)[C@@H](O)[C@@H](OC)C(=O)[C@H](C)C[C@H](C)/C=C/C=C/C=C/1C [Rapamycin]
percent Bodipy-positive cells [4]: 11.1 ± 9.1% | percent Bodipy-positive cells [5]: 8.57 ± 1.9% | percent Bodipy-positive cells [2]: 5.65 ± 0.99% | percent Bodipy-positive cells [6]: 8.44 ± 0.54% | percent Bodipy-positive cells [3]: 6.67 ± 0.56% | percent Bodipy-positive cells [1]: 14.9 ± 2.9%

Cc1[nH]c(/C=C2\C(=O)Nc3ccccc32)c(C)c1CCC(=O)O [SU-6668 (TSU-68, Orantinib) (2 mM)]
percent Bodipy-positive cells [6]: 16 ± 0.55%

Cc1[nH]c(/C=C2\C(=O)Nc3ccccc32)c(C)c1CCC(=O)O
percent Bodipy-positive cells [1]: 6.19 ± 0.52%

Cc1[nH]c(/C=C2\C(=O)Nc3ccccc32)c(C)c1CCC(=O)O [SU-6668 (TSU-68, Orantinib) (10 mM)]
percent Bodipy-positive cells [1]: 15.7 ± 0.72%

Cc1[nH]c(/C=C2\C(=O)Nc3ccccc32)c(C)c1CCC(=O)O [SU-6668 (TSU-68, Orantinib) (0.4 mM)]
percent Bodipy-positive cells [5]: 8.15 ± 2.3%

Cc1[nH]c(/C=C2\C(=O)Nc3ccccc32)c(C)c1CCC(=O)O [TSU-68 (SU6668, Orantinib)]
percent Bodipy-positive cells [3]: 5.5 ± 1% | percent Bodipy-positive cells [1]: 11.34 ± 0.057%

CN(CCOc1ccc(NS(C)(=O)=O)cc1)CCc1ccc(NS(C)(=O)=O)cc1 [Dofetilide]
percent Bodipy-positive cells [3]: 11.7 ± 6.2% | percent Bodipy-positive cells (library stock concentration: 4.5 mM): 10.3 ± 5%

CN(CCOc1ccc(NS(C)(=O)=O)cc1)CCc1ccc(NS(C)(=O)=O)cc1
percent Bodipy-positive cells [1]: 12 ± 4.2%

CNCC(O)c1ccc(O)c(O)c1 (racemic) [(+/-)-Epinephrine hydrochloride]
percent Bodipy-positive cells [1]: 30.7 ± 8.7%

CC(=O)N1CCN(c2ccc(OCC3COC(Cn4ccnc4)(c4ccc(Cl)cc4Cl)O3)cc2)CC1 (stereo not drawn)
percent Bodipy-positive cells [1]: 20.4 ± 7.9%

CC(=O)N1CCN(c2ccc(OCC3COC(Cn4ccnc4)(c4ccc(Cl)cc4Cl)O3)cc2)CC1 (stereo not drawn) [Ketoconazole]
percent Bodipy-positive cells: 18.1 ± 3.6% | percent Bodipy-positive cells [3]: 15 ± 0.56%

C#C[C@]1(O)CC[C@H]2[C@@H]3CCc4cc(OC)ccc4[C@H]3CC[C@@]21C [Ethynylestradiol 3-methyl ether]
percent Bodipy-positive cells: 10.4 ± 1.4%

C#C[C@]1(O)CC[C@H]2[C@@H]3CCc4cc(OC)ccc4[C@H]3CC[C@@]21C
percent Bodipy-positive cells [1]: 70.7 ± 6.8%

C#C[C@]1(O)CC[C@H]2[C@@H]3CCc4cc(OC)ccc4[C@H]3CC[C@@]21C [Mestranol]
percent Bodipy-positive cells [3]: 9.47 ± 0.12% | percent Bodipy-positive cells (library stock concentration: 6.4 mM): 27.6 ± 19% | percent Bodipy-positive cells [1]: 49.4 ± 3.7%

CC(C)NCC(O)c1ccc(NS(C)(=O)=O)cc1 (stereo not drawn) [Sotalol HCl]
percent Bodipy-positive cells (library stock concentration: 7.3 mM): 9.99 ± 2.6%

CC(C)NCC(O)c1ccc(NS(C)(=O)=O)cc1 (stereo not drawn) [Sotalol]
percent Bodipy-positive cells [3]: 11.6 ± 9.9% | percent Bodipy-positive cells [1]: 13.9 ± 0.89%

CC(C)NCC(O)c1ccc(NS(C)(=O)=O)cc1 (stereo not drawn) [(?)-Sotalol hydrochloride] [listing 1 of 2 here]
percent Bodipy-positive cells [1]: 8.18 ± 0.96%

CC(C)NCC(O)c1ccc(NS(C)(=O)=O)cc1 (stereo not drawn) [(?)-Sotalol hydrochloride] [listing 2 of 2 here]
percent Bodipy-positive cells [1]: 12.1 ± 3.2%

CC(C)NCC(O)c1ccc(NS(C)(=O)=O)cc1 (stereo not drawn) [Sotalol hydrochloride]
percent Bodipy-positive cells: 6.98 ± 3% | percent Bodipy-positive cells [1]: 7.98 ± 3.8%

CC1=C(C)C(=O)C(CCCCC#CCCCC#CCO)=C(C)C1=O
percent Bodipy-positive cells [1]: 56.6 ± 13% | percent Bodipy-positive cells (library stock concentration: 15.3 mM): 16.6 ± 0.68%

CC1=C(C)C(=O)C(CCCCC#CCCCC#CCO)=C(C)C1=O [Docebenone]
percent Bodipy-positive cells (library stock concentration: 6.1 mM): 10.4 ± 2%

Nc1ccc(C(=O)Nc2cccc(-c3nc(N4CCOCC4)c4oc5ncccc5c4n3)c2)cn1
percent Bodipy-positive cells [1]: 98.7 ± 1.1%

CN(C)CCCCSC(=N)N
percent Bodipy-positive cells [1]: 6.24 ± 4.1%

COc1ccc2cccc(CCNC(C)=O)c2c1 [Agomelatine]
percent Bodipy-positive cells [2]: 17.7 ± 2.3% | percent Bodipy-positive cells [3]: 8.8 ± 0.8% | percent Bodipy-positive cells [1]: 14.15 ± 0.11%

CCCCCC/C=C/C=C\CCCCCCCC(=O)O [9(Z),11(E)-Conjugated Linoleic Acid]
percent Bodipy-positive cells [2]: 11.5 ± 0.84%

Nc1nc2c([nH]c(=O)n2[C@H]2C[C@H](O)[C@@H](CO)O2)c(=O)[nH]1 [8-hydroxy-2'-deoxy Guanosine]
percent Bodipy-positive cells [2]: 11.4 ± 3.6%

COc1cc(C=O)ccc1O [Vanillin]
percent Bodipy-positive cells [3]: 6.39 ± 2.2% | percent Bodipy-positive cells [1]: 20.3 ± 14%

C1=N/C2=N/c3ccc(OCCN4CCCC4)c(c3)COC/C=C/COCc3cccc(c3)C(=C1)N2 [Pacritinib]
percent Bodipy-positive cells [4]: 26.5 ± 8.6% | percent Bodipy-positive cells [5]: 58.6 ± 4.6% | percent Bodipy-positive cells [6]: 56.6 ± 1.7%

C1=N/C2=N/c3ccc(OCCN4CCCC4)c(c3)COC/C=C/COCc3cccc(c3)C(=C1)N2 [Pacritinib (SB1518)]
percent Bodipy-positive cells [3]: 94.38 ± 0.51% | percent Bodipy-positive cells [1]: 98.1 ± 1.9%

CCCCCCCCCCCCCCCC[N+](C)(C)CCN(Cc1ccc(OC)cc1)c1ncccn1 [Thonzonium bromide]
percent Bodipy-positive cells: 57.3 ± 15%

CC(C)(C)NS(=O)(=O)c1cncc(-c2cc(F)c3nc(N)nn3c2)c1
percent Bodipy-positive cells [3]: 11.4 ± 4.1% | percent Bodipy-positive cells [1]: 48.8 ± 18%

O=C(O)P(=O)(O)O [Foscarnet sodium]
percent Bodipy-positive cells [1]: 21.65 ± 0.21% | percent Bodipy-positive cells (library stock concentration: 10.4 mM): 25.1 ± 8.3%

O=C(O)P(=O)(O)O [Foscarnet Sodium]
percent Bodipy-positive cells [3]: 7.78 ± 0.94% | percent Bodipy-positive cells [1]: 13.2 ± 3.8%

Cc1cc2c(cc1Cl)N(C(=O)Nc1ccnc3ccccc13)CC2
percent Bodipy-positive cells [1]: 93.02 ± 0.17%
